Test results published in US20240052038A1.
These are yes or no findings as the source states them, for the method shown. Some results given as binding are weak or reduced against the parent protein; the word gives no strength. Where a sequence is shown, tags or fusion partners need not be part of it.

Experiments:
[1] = target: cynomolgus monkey PD-L1 on blood T lymphocytes (cynomolgus monkey) (UniProt G7PSE7); assay: receptor occupancy on blood T lymphocytes by flow cytometry, cynomolgus monkeys, single IV 13 mg/kg
[2] = target: cynomolgus monkey PD-L1 on blood T lymphocytes (cynomolgus monkey) (UniProt G7PSE7); assay: in vivo receptor occupancy on blood T lymphocytes of cynomolgus monkeys after a single IV infusion of 13 mg/kg; flow cytometry of PBMC; serum concentration by reverse ELISA on the same time axis

B1: Variant 4-G09 (Fc effector null-H315A + H440Q) (antibody, human IgG1, kappa, L234A L235A)
heavy: EVQLVESGGGLVQPGRSLRLSCAASGFTFDDYAMHWVRQTPGKGLEWVSGISWKSNIIGYADSVKGRFTISRDNAKNSLYLQMNSLRAEDTALYYCARDITGSGSYGWFDPWGQGTLVTVSSASTKGPSVFPLAPSSKSTSGGTAALGCLVKDYFPEPVTVSWNSGALTSGVHTFPAVLQSSGLYSLSSVVTVPSSSLGTQTYICNVNHKPSNTKVDKRVEPKSCDKTHTCPPCPAPEAAGGPSVFLFPPKPKDTLMISRTPEVTCVVVDVSHEDPEVKFNWYVDGVEVHNAKTKPREEQYNSTYRVVSVLTVLAQDWLNGKEYKCAVSNKALPAPIEKTISKAKGQPREPQVYTLPPSREEMTKNQVSLTCLVKGFYPSDIAVEWESNGQPENNYKTTPPVLDSDGSFFLYSKLTVDKSRWQQGNVFSCSVMHEALHNQYTQKSLSLSPG
light: DIQMTQSPSSLSASVGDRVTITCRASQSISSYLNWYQQKPGKAPKPLIYVASSLQSGVPSSFSGSGSGTDFTLTISSLQPEDFATYYCQQSYSNPITFGQGTRLEIKRTVAAPSVFIFPPSDEQLKSGTASVVCLLNNFYPREAKVQWKVDNALQSGNSQESVTEQDSKDSTYSLSSTLTLSKADYEKHKVYACEVTHQGLSSPVTKSFNRGEC
[1]
  binding: binds
[2]
  binding: binds
